In the assay the target is T1, four-and-a-half LIM protein-1 (FHL1) (rat (endogenous in L6GNR4 cells and E17 rat embryo lower limbs)) (UniProt Q9WUH4).
T1 sequence: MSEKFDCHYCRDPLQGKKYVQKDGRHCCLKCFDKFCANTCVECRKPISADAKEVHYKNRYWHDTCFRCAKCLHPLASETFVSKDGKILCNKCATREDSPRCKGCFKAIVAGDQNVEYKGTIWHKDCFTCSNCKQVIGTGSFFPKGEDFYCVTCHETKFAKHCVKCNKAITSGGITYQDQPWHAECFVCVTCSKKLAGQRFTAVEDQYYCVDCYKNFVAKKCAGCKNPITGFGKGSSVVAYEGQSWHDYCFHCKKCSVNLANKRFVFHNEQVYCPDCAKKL
Kind of assay: affinity purification with mass spectrometry; anti-FHL1 antibody on protein A/G beads, L6GNR4 total protein, overnight at 4°C, RIPA and solubilization buffer washes; SDS-PAGE, CBB-stained bands excised, MALDI-TOF/TOF; mouse IgG and GAPDH antibody as negative controls.

By UniProt entry, the sequences of proteins in these tests, tags left out.
UniProt Q9JLT0: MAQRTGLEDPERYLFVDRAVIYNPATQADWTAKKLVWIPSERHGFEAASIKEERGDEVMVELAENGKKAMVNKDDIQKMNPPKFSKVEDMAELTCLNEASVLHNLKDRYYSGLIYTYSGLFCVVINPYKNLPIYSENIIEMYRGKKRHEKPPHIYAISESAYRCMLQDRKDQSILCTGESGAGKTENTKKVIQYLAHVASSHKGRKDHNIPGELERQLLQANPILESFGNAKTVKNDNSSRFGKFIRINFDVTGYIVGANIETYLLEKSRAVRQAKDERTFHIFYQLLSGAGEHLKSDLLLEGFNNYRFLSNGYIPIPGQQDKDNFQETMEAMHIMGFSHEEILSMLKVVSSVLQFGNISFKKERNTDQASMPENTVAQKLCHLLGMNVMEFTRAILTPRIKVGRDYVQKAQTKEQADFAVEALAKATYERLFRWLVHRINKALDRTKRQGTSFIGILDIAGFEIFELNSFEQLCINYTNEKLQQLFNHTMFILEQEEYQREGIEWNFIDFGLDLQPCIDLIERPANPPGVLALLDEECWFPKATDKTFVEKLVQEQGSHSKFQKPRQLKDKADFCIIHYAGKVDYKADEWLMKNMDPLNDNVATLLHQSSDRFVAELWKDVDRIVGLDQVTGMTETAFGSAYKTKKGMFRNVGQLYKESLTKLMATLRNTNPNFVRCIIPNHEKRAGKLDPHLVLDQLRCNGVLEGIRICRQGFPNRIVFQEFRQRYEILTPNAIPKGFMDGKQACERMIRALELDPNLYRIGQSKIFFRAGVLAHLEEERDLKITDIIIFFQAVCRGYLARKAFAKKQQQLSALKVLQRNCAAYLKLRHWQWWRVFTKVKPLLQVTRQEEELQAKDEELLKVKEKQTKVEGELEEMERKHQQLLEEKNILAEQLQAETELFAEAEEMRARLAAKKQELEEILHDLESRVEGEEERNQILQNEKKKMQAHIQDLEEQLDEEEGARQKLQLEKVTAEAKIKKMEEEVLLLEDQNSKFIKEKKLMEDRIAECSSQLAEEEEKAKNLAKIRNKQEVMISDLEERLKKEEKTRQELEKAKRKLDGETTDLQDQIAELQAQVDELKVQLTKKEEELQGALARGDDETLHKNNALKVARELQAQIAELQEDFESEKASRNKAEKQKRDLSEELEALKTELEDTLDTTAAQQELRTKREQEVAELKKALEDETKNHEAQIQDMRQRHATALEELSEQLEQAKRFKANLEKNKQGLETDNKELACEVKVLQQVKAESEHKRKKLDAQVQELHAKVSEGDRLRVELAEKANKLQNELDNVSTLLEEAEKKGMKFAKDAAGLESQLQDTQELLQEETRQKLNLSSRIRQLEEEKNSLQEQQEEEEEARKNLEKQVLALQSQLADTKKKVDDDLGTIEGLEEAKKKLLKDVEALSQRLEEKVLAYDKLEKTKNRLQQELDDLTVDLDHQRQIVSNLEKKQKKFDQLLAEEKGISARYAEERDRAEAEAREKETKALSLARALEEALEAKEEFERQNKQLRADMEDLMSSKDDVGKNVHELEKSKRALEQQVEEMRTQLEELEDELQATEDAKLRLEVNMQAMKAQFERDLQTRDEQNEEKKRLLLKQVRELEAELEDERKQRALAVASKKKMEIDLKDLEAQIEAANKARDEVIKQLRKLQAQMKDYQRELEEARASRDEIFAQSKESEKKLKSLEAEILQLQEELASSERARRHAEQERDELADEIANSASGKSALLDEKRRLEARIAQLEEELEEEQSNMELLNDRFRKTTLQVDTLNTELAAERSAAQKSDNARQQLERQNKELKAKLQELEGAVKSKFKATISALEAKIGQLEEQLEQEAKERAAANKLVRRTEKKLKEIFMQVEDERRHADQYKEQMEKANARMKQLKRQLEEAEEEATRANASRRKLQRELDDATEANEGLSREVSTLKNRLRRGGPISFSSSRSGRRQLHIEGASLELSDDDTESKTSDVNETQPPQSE

These are yes or no findings as the source states them, for the method shown. In cells and extracts the contact can be indirect. Here binding means that the protein was enriched with, or labelled near, the bait; the list need not be complete.

With “non-muscle myosin IIB (Myh10) (from UniProt Q9JLT0 1-1976)”, the binding result was “binds”.
